Measurements reported in PubChem BioAssay AID504774 (Drosophila RNAi Screening Center, 2011)
Purpose: 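Genes required for cells to withstand methyl methanesulphonate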 (primary screen). Cells: Drosophila Kc167 cells. Reagents: long dsRNA against Drosophila genes, about 0.25 µg dsRNA per well. Time to read-out: about 6 days: 3 days knock-down, then 3 days with or without MMS. Challenge: methyl methanesulphonate 0.004% (w/v) for 3 days after knock-down. Measurement: 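Viability in wells given MMS, read as ATP luminescence, normalised by quantiles plate by plate and averaged across replicates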. Reading the numbers: mean viability with MMS and viability with MMS: higher = more surviving cells after MMS.
The deposit covers about 23,000 reagents; below is a random part of those that have a named target and a result. 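Values are quantile-normalised luminescence on an arbitrary scale; higher means more cells surviving MMS.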 The numbers tell different reagents against one gene apart. A plus sign joins genes that one reagent is predicted to hit.

no.	predicted target	dsRNA no.	mean viability with MMS	viability with MMS, replicate 1	viability with MMS, replicate 2
1	Hey	1	2.80e6	3.57e6	3.57e6
2	Hey	2	3.52e6	4.14e6	3.87e6
3	Dis3l2	1	3.50e6	4.01e6	3.93e6
4	aop	1	2.90e6	3.40e6	3.41e6
5	aop	2	3.40e6	3.77e6	3.96e6
6	Obp19d	1	3.67e6	3.99e6	4.27e6
7	Gr68a	1	3.81e6	4.39e6	4.17e6
8	CG14434	1	3.79e6	4.41e6	4.23e6
9	jef	1	3.83e6	4.02e6	4.43e6
10	CG42717	1	3.75e6	4.26e6	4.19e6
11	Mad	1	3.72e6	4.23e6	4.10e6
12	GAPcenA	1	3.76e6	4.25e6	4.25e6
13	Polr3D	1	3.35e6	3.72e6	3.84e6
14	CG9095	1	3.46e6	3.92e6	3.92e6
15	MtnA	1	3.72e6	4.12e6	4.27e6
16	CG10602	1	3.47e6	3.79e6	4.07e6
17	spn-F	1	3.27e6	3.76e6	3.76e6
18	Orai	1	3.44e6	3.89e6	3.93e6
19	Orai	2	3.64e6	4.13e6	4.08e6
20	CG15549	1	3.61e6	4.07e6	4.12e6
21	CG15369	1	3.53e6	4.06e6	3.92e6
22	beta4GalNAcTB	1	3.67e6	4.29e6	4.04e6
23	CG14861	1	3.42e6	3.76e6	3.98e6
24	CG4892	1	3.55e6	4.03e6	4.02e6
25	CG10669	1	3.24e6	3.66e6	3.68e6
26	Tl	1	3.67e6	4.22e6	4.08e6
27	Scp1	1	2.23e6	3.90e6	3.68e6
28	Scp1	2	2.25e6	3.89e6	3.94e6
29	Scp1	3	3.52e6	3.94e6	4.05e6
30	hfp	1	3.20e6	3.62e6	3.65e6
31	hfp	2	3.55e6	4.02e6	4.01e6
32	hfp	3	3.85e6	4.21e6	4.32e6
33	CG14995	1	3.17e6	3.66e6	3.68e6
34	CG14995	2	3.53e6	3.95e6	4.10e6
35	CG15279	1	3.54e6	3.97e6	4.06e6
36	barc	1	3.23e6	3.63e6	3.68e6
37	CG14635	1	3.45e6	3.93e6	3.89e6
38	Naa30A	1	2.81e6	3.57e6	3.70e6
39	Naa30A	2	3.42e6	3.91e6	3.88e6
40	Prp19	1	3.42e6	3.83e6	3.90e6
41	CG8461	1	3.45e6	3.87e6	3.92e6
42	CG13339	1	3.66e6	4.01e6	4.39e6

12 of these entries, reformatted:
predicted target	dsRNA no.	mean viability with MMS	viability with MMS, replicate 1	viability with MMS, replicate 2
CG9095	1	3.46e6	3.92e6	3.92e6
MtnA	1	3.72e6	4.12e6	4.27e6
CG10602	1	3.47e6	3.79e6	4.07e6
spn-F	1	3.27e6	3.76e6	3.76e6
Orai	1	3.44e6	3.89e6	3.93e6
Orai	2	3.64e6	4.13e6	4.08e6
CG15549	1	3.61e6	4.07e6	4.12e6
CG15369	1	3.53e6	4.06e6	3.92e6
beta4GalNAcTB	1	3.67e6	4.29e6	4.04e6
CG14861	1	3.42e6	3.76e6	3.98e6
CG4892	1	3.55e6	4.03e6	4.02e6
CG10669	1	3.24e6	3.66e6	3.68e6

Further entries follow.
no.	predicted target	dsRNA no.	mean viability with MMS	viability with MMS, replicate 1	viability with MMS, replicate 2
43	Dhc93AB	1	3.40e6	3.80e6	3.94e6
44	Actn	1	3.58e6	4.06e6	4.05e6
45	CG7611	1	3.60e6	3.99e6	4.16e6
46	nxf4	1	3.35e6	3.90e6	3.76e6
47	Erasp	1	3.56e6	4.06e6	4.01e6
48	CG18262	1	3.62e6	3.80e6	4.41e6
49	Or42a	1	3.49e6	3.88e6	4.00e6
50	CG2608	1	3.15e6	3.77e6	3.29e6
51	Ost48	1	3.68e6	4.13e6	4.17e6
52	Reepl1	1	3.64e6	4.10e6	4.12e6
53	CG11333	1	3.49e6	3.81e6	4.13e6
54	CheA75a	1	3.62e6	4.07e6	4.12e6
55	me31B	1	3.29e6	3.75e6	3.67e6
56	Chd64	1	3.56e6	4.02e6	4.06e6
57	Phyhd1	1	3.67e6	4.04e6	4.19e6
58	Fuca	1	3.50e6	3.89e6	4.03e6
59	Rab9Db + Rab9D + Rab9E	1	3.54e6	4.06e6	3.97e6
60	cn	1	3.46e6	3.83e6	4.04e6
61	Or35a	1	3.55e6	3.99e6	4.06e6
62	CG18823	1	3.53e6	3.99e6	4.03e6
63	CG13869 + CG11099	1	3.49e6	3.99e6	3.91e6
64	CG5098	1	3.45e6	3.83e6	3.99e6
65	Rpt4	1	2.83e6	3.38e6	3.46e6
66	Sara	1	3.60e6	4.03e6	4.15e6
67	PolG1	1	3.77e6	4.20e6	4.21e6
68	Dnah3	1	3.57e6	4.00e6	4.10e6
69	Dnah3	2	3.59e6	4.11e6	4.05e6
70	CG11999	1	3.60e6	4.08e6	4.08e6
71	mRpL21	1	3.66e6	4.20e6	4.06e6
72	beat-Vc	1	3.37e6	3.79e6	3.83e6
73	beat-Vc	2	3.38e6	3.93e6	3.79e6
74	naz	1	3.64e6	4.02e6	4.21e6
75	naz	2	3.52e6	3.94e6	4.05e6
76	mRpL2	1	3.55e6	3.99e6	4.06e6
77	TTLL6A	1	3.65e6	4.15e6	4.09e6
78	eIF6	1	3.48e6	4.12e6	3.75e6
79	VhaAC39-2	1	3.69e6	4.27e6	4.09e6
80	CG31251	1	3.45e6	3.99e6	3.85e6
81	clumsy	1	3.46e6	3.93e6	3.89e6
82	CG31538	1	3.63e6	4.22e6	3.96e6
83	sdt	1	3.50e6	4.00e6	3.95e6
84	sdt	2	3.52e6	4.08e6	3.92e6
85	sdt	3	3.59e6	4.14e6	4.02e6
86	sdt	4	3.53e6	4.02e6	3.99e6
87	sdt	5	3.46e6	3.93e6	3.93e6
88	sdt	6	2.80e6	3.43e6	3.36e6
89	sdt	7	2.79e6	3.36e6	3.42e6
90	sdt	8	3.49e6	3.92e6	4.00e6
91	sdt	9	3.92e6	4.29e6	4.70e6
